Source: article PMC12030706 (Pharmaceuticals, 2025)
Numbered stars: 1 amine (or outer) side, 2 acyl side, 3 side chain; on linkers, the order of the positions; unused ones are H or OH. Square brackets hold non-standard residues; d marks the D form. Peptide text beside a SMILES is read from it. * marks the point of attachment. DOTA = O=C(O)CN1CCN(CC(=O)O)CCN(CC(=O)*)CCN(CC(=O)O)CC1; NMeH = CN[C@@H](Cc1c[nH]cn1)C(=O)O; X1 = O=C(CN1CCC(N[*:1])CC1)[*:2]; Tle = CC(C)(C)[C@H](N)C(=O)O; Thz = O=C(O)[C@@H]1CSCN1

Columns and labels:
[1] = system: adult human male model; test: Radiation dosimetry extrapolated to adult human male model (OLINDA); type: in vivo; settings: for Effective (whole-body) dose / Estimated radiation absorbed dose, adrenals / Estimated radiation absorbed dose, brain / Estimated radiation absorbed dose, esophagus / Estimated radiation absorbed dose, eyes / Estimated radiation absorbed dose, gallbladder wall / Estimated radiation absorbed dose, heart / Estimated radiation absorbed dose, kidneys / Estimated radiation absorbed dose, left colon / Estimated radiation absorbed dose, liver / Estimated radiation absorbed dose, lungs / Estimated radiation absorbed dose, pancreas / Estimated radiation absorbed dose, prostate / Estimated radiation absorbed dose, rectum / Estimated radiation absorbed dose, red marrow / Estimated radiation absorbed dose, right colon / Estimated radiation absorbed dose, salivary glands / Estimated radiation absorbed dose, skeleton / Estimated radiation absorbed dose, small intestine / Estimated radiation absorbed dose, spleen / Estimated radiation absorbed dose, stomach wall / Estimated radiation absorbed dose, testes / Estimated radiation absorbed dose, thymus / Estimated radiation absorbed dose, thyroid / Estimated radiation absorbed dose, total body / Estimated radiation absorbed dose, urinary bladder: extrapolated from mouse
[2] = system: PC-3 tumor-bearing NRG mouse; test: Longitudinal SPECT/CT imaging in PC-3 tumor-bearing mice; type: in vivo, mice (NRG); settings: post-injection
Description: The PC-3 tumor-bearing mice were sedated (2.5% isoflurane in O2) and injected with ^177Lu-labeled ligands (15–32 MBq) through a lateral caudal tail vein. […] At each time point, a 5 min CT scan was obtained using 615 μA and 60 kV parameters for localization and attenuation, followed by 2 × 30 min static SPECT scans acquired in list mode with an energy window centered around 208 keV. The MILabs U-SPECT II reconstruction software (version 8.00) was used to reconstruct data, and the images were decay corrected to the time of injection with PMOD v 3.402 (PMOD Technologies GmbH, Fallanden, Switzerland).

[3] = system: mice, PC-3 tumor xenograft and organs; test: Radiation dosimetry in mice (OLINDA, from biodistribution data); type: in vivo; settings: for Radiation absorbed dose, PC-3 tumor: 1 g PC-3 tumor xenograft (Unit Density Sphere Model)

Q: What does the source list for `CC(C)C[C@H](NC(=O)[C@H](Cc1cnc[nH]1)N(C)C(=O)CNC(=O)[C@@H](NC(=O)[C@H](C)NC(=O)[C@H](Cc1c[nH]c2ccccc12)NC(=O)[C@H](CCC(N)=O)NC(=O)[C@@H](Cc1ccccc1)NC(=O)CN1CCC(NC(=O)CN2CCN(CC(=O)O)CCN(CC(=O)O)CCN(CC(=O)O)CC2)CC1)C(C)(C)C)C(=O)N1CSC[C@H]1C(N)=O` [[^177Lu]Lu-LW01110, metal not drawn]?
A: Effective (whole-body) dose [1]: 1.35 × 10^−2 mSv/MBq; Estimated radiation absorbed dose, adrenals [1]: 6.13E-02 mGy/MBq; Estimated radiation absorbed dose, brain [1]: 4.10E-04 mGy/MBq; Estimated radiation absorbed dose, esophagus [1]: 5.08E-04 mGy/MBq; Estimated radiation absorbed dose, eyes [1]: 1.97E-04 mGy/MBq; Estimated radiation absorbed dose, gallbladder wall [1]: 8.12E-04 mGy/MBq; Estimated radiation absorbed dose, heart [1]: 1.63E-03 mGy/MBq; Estimated radiation absorbed dose, kidneys [1]: 7.57E-02 mGy/MBq; Estimated radiation absorbed dose, left colon [1]: 3.82E-02 mGy/MBq; Estimated radiation absorbed dose, liver [1]: 8.32E-03 mGy/MBq; Estimated radiation absorbed dose, lungs [1]: 9.27E-03 mGy/MBq; Estimated radiation absorbed dose, pancreas [1]: 1.53 × 10^−1 mGy/MBq; Estimated radiation absorbed dose, prostate [1]: 1.13E-03 mGy/MBq; Estimated radiation absorbed dose, rectum [1]: 1.83E-02 mGy/MBq; Estimated radiation absorbed dose, red marrow [1]: 4.78E-04 mGy/MBq; Estimated radiation absorbed dose, right colon [1]: 1.94E-02 mGy/MBq; Estimated radiation absorbed dose, salivary glands [1]: 2.08E-04 mGy/MBq; Estimated radiation absorbed dose, skeleton [1]: 6.57E-04 mGy/MBq; Estimated radiation absorbed dose, small intestine [1]: 1.56E-02 mGy/MBq; Estimated radiation absorbed dose, spleen [1]: 1.01E-02 mGy/MBq; Estimated radiation absorbed dose, stomach wall [1]: 4.30E-03 mGy/MBq; Estimated radiation absorbed dose, testes [1]: 6.09E-03 mGy/MBq; Estimated radiation absorbed dose, thymus [1]: 3.42E-04 mGy/MBq; Estimated radiation absorbed dose, thyroid [1]: 2.76E-04 mGy/MBq; Estimated radiation absorbed dose, total body [1]: 2.39E-03 mGy/MBq; Estimated radiation absorbed dose, urinary bladder [1]: 1.25E-01 mGy/MBq; Effective (whole-body) dose ([1]; listed as [177Lu]Lu-LW01110): 1.35E-02 mSv/MBq; Estimated radiation absorbed dose, pancreas ([1]; listed as [177Lu]Lu-LW01110): 1.53E-01 mGy/MBq; PC-3 tumor xenografts visualized in SPECT images up to [2]: up to 120 h; Radiation absorbed dose, (urinary) bladder [3]: 1260 mGy/MBq; Radiation absorbed dose, brain [3]: 1.79 mGy/MBq; Radiation absorbed dose, heart [3]: 2.71 mGy/MBq; Radiation absorbed dose, kidneys [3]: 177 mGy/MBq; Radiation absorbed dose, large intestine [3]: 92.9 mGy/MBq; Radiation absorbed dose, liver [3]: 20.2 mGy/MBq; Radiation absorbed dose, lungs [3]: 19.1 mGy/MBq; Radiation absorbed dose, pancreas [3]: 348 mGy/MBq; Radiation absorbed dose, skeleton [3]: 8.3 mGy/MBq; Radiation absorbed dose, small intestine [3]: 40.4 mGy/MBq; Radiation absorbed dose, spleen [3]: 27.4 mGy/MBq; Radiation absorbed dose, stomach wall [3]: 35.8 mGy/MBq; Radiation absorbed dose, testes [3]: 15.4 mGy/MBq; Radiation absorbed dose, thyroid [3]: 0.87 mGy/MBq; Radiation absorbed dose, total body [3]: 20.9 mGy/MBq; pancreas absorbed dose, fold of that for [177Lu]Lu-TacsBOMB5 [3]: approximately 30 fold; Radiation absorbed dose, PC-3 tumor [3]: 312 mGy/MBq

Q: Which results are given for `CC(C)C[C@H](NC(=O)[C@H](Cc1cnc[nH]1)N(C)C(=O)CNC(=O)[C@@H](NC(=O)[C@H](C)NC(=O)[C@H](Cc1c[nH]c2ccccc12)NC(=O)[C@H](Cc1c[nH]cn1)NC(=O)[C@@H](Cc1ccccc1)NC(=O)CN1CCC(NC(=O)CN2CCN(CC(=O)O)CCN(CC(=O)O)CCN(CC(=O)O)CC2)CC1)C(C)(C)C)C(=O)N1CSC[C@H]1C(N)=O` [[^177Lu]Lu-LW01142, metal not drawn] ({DOTA}-[X1][dF]HWA[Tle]G[NMeH]L[Thz]-NH2)?
A: estimated pancreas absorbed dose as % of that of [177Lu]Lu-NeoB [1]: 28%; estimated pancreas absorbed dose as % of that of [177Lu]Lu-RM2 [1]: 67%; Effective (whole-body) dose [1]: 1.16 × 10^−2 mSv/MBq; Estimated radiation absorbed dose, adrenals [1]: 2.82E-02 mGy/MBq; Estimated radiation absorbed dose, brain [1]: 9.04E-04 mGy/MBq; Estimated radiation absorbed dose, esophagus [1]: 7.08E-04 mGy/MBq; Estimated radiation absorbed dose, eyes [1]: 3.53E-04 mGy/MBq; Estimated radiation absorbed dose, gallbladder wall [1]: 1.16E-03 mGy/MBq; Estimated radiation absorbed dose, heart [1]: 3.12E-03 mGy/MBq; Estimated radiation absorbed dose, kidneys [1]: 1.27E-01 mGy/MBq; Estimated radiation absorbed dose, left colon [1]: 2.02E-02 mGy/MBq; Estimated radiation absorbed dose, liver [1]: 1.63E-02 mGy/MBq; Estimated radiation absorbed dose, lungs [1]: 1.03E-02 mGy/MBq; Estimated radiation absorbed dose, pancreas [1]: 7.79 × 10^−2 mGy/MBq; Estimated radiation absorbed dose, prostate [1]: 1.22E-03 mGy/MBq; Estimated radiation absorbed dose, rectum [1]: 9.97E-03 mGy/MBq; Estimated radiation absorbed dose, red marrow [1]: 7.84E-04 mGy/MBq; Estimated radiation absorbed dose, right colon [1]: 1.05E-02 mGy/MBq; Estimated radiation absorbed dose, salivary glands [1]: 3.67E-04 mGy/MBq; Estimated radiation absorbed dose, skeleton [1]: 1.02E-03 mGy/MBq; Estimated radiation absorbed dose, small intestine [1]: 9.57E-03 mGy/MBq; Estimated radiation absorbed dose, spleen [1]: 1.42E-02 mGy/MBq; Estimated radiation absorbed dose, stomach wall [1]: 5.38E-03 mGy/MBq; Estimated radiation absorbed dose, testes [1]: 1.10E-03 mGy/MBq; Estimated radiation absorbed dose, thymus [1]: 5.31E-04 mGy/MBq; Estimated radiation absorbed dose, thyroid [1]: 4.44E-04 mGy/MBq; Estimated radiation absorbed dose, total body [1]: 2.67E-03 mGy/MBq; Estimated radiation absorbed dose, urinary bladder [1]: 1.17E-01 mGy/MBq; Effective (whole-body) dose ([1]; listed as [177Lu]Lu-LW01142): 1.16E-02 mSv/MBq; Estimated radiation absorbed dose, pancreas ([1]; listed as [177Lu]Lu-LW01142): 7.79E-02 mGy/MBq; PC-3 tumor xenografts visualized in SPECT images up to [2]: up to 120 h; Radiation absorbed dose, (urinary) bladder [3]: 1180 mGy/MBq; Radiation absorbed dose, brain [3]: 3.7 mGy/MBq; Radiation absorbed dose, heart [3]: 4.65 mGy/MBq; Radiation absorbed dose, kidneys [3]: 294 mGy/MBq; Radiation absorbed dose, large intestine [3]: 49.5 mGy/MBq; Radiation absorbed dose, liver [3]: 38.8 mGy/MBq; Radiation absorbed dose, lungs [3]: 22.7 mGy/MBq; Radiation absorbed dose, pancreas [3]: 180 mGy/MBq; Radiation absorbed dose, skeleton [3]: 14.5 mGy/MBq; Radiation absorbed dose, small intestine [3]: 25 mGy/MBq; Radiation absorbed dose, spleen [3]: 35.4 mGy/MBq; Radiation absorbed dose, stomach wall [3]: 42.7 mGy/MBq; Radiation absorbed dose, testes [3]: 4.46 mGy/MBq; Radiation absorbed dose, thyroid [3]: 1.65 mGy/MBq; Radiation absorbed dose, total body [3]: 20 mGy/MBq; Radiation absorbed dose, PC-3 tumor [3]: 312 mGy/MBq
